Measurements from patent US11952382B1, “2-benzo-[3,4-b]quinolino-[b,g]indeno[1,2:3,4]fluoreno-[1,2-d]oxonine-24-flouro-5,11,16,21-tetraone as an antimicrobial compound” (KING FAISAL UNIVERSITY, priority 2023, dated 2024).
At least one compound was matched to its structure with a doubt left.

What was measured:
Assay type in all cases: cell-based
Escherichia coli = assay: Antimicrobial screening by agar dilution, Escherichia coli; conditions: E. Coli
Description: (§1) The antibacterial properties of the synthesized compound 2-benzo-[3,4-b]quinolino-[b,g]indeno[1′,2′:3,4]fluoreno-[1,2-d]oxonine-24-flouro-5,11,16,21-tetraone were studied by the method of agar dilution. Test solutions of each compound was prepared in concentration of 1% using dimethylformamide as a solvent then they are diluted in physiological solution to obtain the final experimental dilutions 1:100, 1:200, 1:400, 1:800. The effect of these substances are compared with furacillin in a controllable study. The testing microbes used were gram positive bacteria Staphylococcus aureus, gram negative bacteria Pseudomonas aeruginosa and Escherichia coli and Candida albicans fungus. The experiments used for this survey were meat-pentonlu agar (EPA) for cultivation of bacteria and Saburo environment for the fungus. Each experiment used 1 mL of test solution on each plate […]. Two drops of emulsified with microbes feel were added. All experimental samples were taken from the agar after 10, 20, 40, 60 minutes in the environment on the basis of Patrk planted. The bacteria were cultivated at a temperature of 37° C. for 1 day and the mushroom was kept in a thermostat for 2 hours at a temperature of 28° C. Then results were checked.

Pseudomonas aeruginosa = assay: Antimicrobial screening by agar dilution, Pseudomonas aeruginosa; conditions: Ps. aeruginosa
Description: as §1

Candida albicans = assay: Antimicrobial (antifungal) screening by agar dilution, Candida albicans
Description: as §1

Staphylococcus aureus = assay: Antimicrobial screening by agar dilution, Staphylococcus aureus; conditions: St. Aereus
Description: as §1

[1] = dilution rate 1:100, exposure time 10 min
[2] = dilution rate 1:100, exposure time 20 min
[3] = dilution rate 1:100, exposure time 40 min
[4] = dilution rate 1:100, exposure time 60 min
[5] = dilution rate 1:200, exposure time 10 min
[6] = dilution rate 1:200, exposure time 20 min
[7] = dilution rate 1:200, exposure time 40 min
[8] = dilution rate 1:200, exposure time 60 min
[9] = dilution rate 1:400, exposure time 10 min
[10] = dilution rate 1:400, exposure time 20 min
[11] = dilution rate 1:400, exposure time 40 min
[12] = dilution rate 1:400, exposure time 60 min
[13] = dilution rate 1:800, exposure time 10 min
[14] = dilution rate 1:800, exposure time 20 min
[15] = dilution rate 1:800, exposure time 40 min
[16] = dilution rate 1:800, exposure time 60 min

Question: How did the antimicrobial activity (Escherichia coli; [1]) turn out when NC(=O)N/N=C/c1ccc([N+](=O)[O-])o1 [Furacilin] was run?
Answer: −

Question: And the antimicrobial activity (Escherichia coli; [2])?
Answer: −

Question: What about the antimicrobial activity (Escherichia coli; [3]) of the same compound?
Answer: −

Question: What about the antimicrobial activity (Escherichia coli; [4]) of the same compound?
Answer: −

Question: What about the antimicrobial activity (Escherichia coli; [5]) of the same compound?
Answer: +

Question: And the antimicrobial activity (Escherichia coli; [6])?
Answer: +

Question: And the antimicrobial activity (Escherichia coli; [7])?
Answer: +

Question: And the antimicrobial activity (Escherichia coli; [8])?
Answer: +

Question: And the antimicrobial activity (Escherichia coli; [9])?
Answer: +

Question: And the antimicrobial activity (Escherichia coli; [10])?
Answer: +

Question: And the antimicrobial activity (Escherichia coli; [11])?
Answer: +

Question: What about the antimicrobial activity (Escherichia coli; [12]) of the same compound?
Answer: +

Question: What about the antimicrobial activity (Escherichia coli; [13]) of the same compound?
Answer: +

Question: What about the antimicrobial activity (Escherichia coli; [14]) of the same compound?
Answer: +

Question: What about the antimicrobial activity (Escherichia coli; [15]) of the same compound?
Answer: +

Question: And the antimicrobial activity (Escherichia coli; [16])?
Answer: +

Question: What about the antimicrobial activity (Pseudomonas aeruginosa; [1]) of the same compound?
Answer: +

Question: What about the antimicrobial activity (Pseudomonas aeruginosa; [2]) of the same compound?
Answer: +

Question: What about the antimicrobial activity (Pseudomonas aeruginosa; [3]) of the same compound?
Answer: +

Question: What about the antimicrobial activity (Pseudomonas aeruginosa; [4]) of the same compound?
Answer: +

Question: What about the antimicrobial activity (Pseudomonas aeruginosa; [5]) of the same compound?
Answer: +

Question: What about the antimicrobial activity (Pseudomonas aeruginosa; [6]) of the same compound?
Answer: +

Question: And the antimicrobial activity (Pseudomonas aeruginosa; [7])?
Answer: +

Question: What about the antimicrobial activity (Pseudomonas aeruginosa; [8]) of the same compound?
Answer: +

Question: And the antimicrobial activity (Pseudomonas aeruginosa; [9])?
Answer: +

Question: And the antimicrobial activity (Pseudomonas aeruginosa; [10])?
Answer: +

Question: And the antimicrobial activity (Pseudomonas aeruginosa; [11])?
Answer: +

Question: And the antimicrobial activity (Pseudomonas aeruginosa; [12])?
Answer: +

Question: What about the antimicrobial activity (Pseudomonas aeruginosa; [13]) of the same compound?
Answer: +

Question: And the antimicrobial activity (Pseudomonas aeruginosa; [14])?
Answer: +

Question: What about the antimicrobial activity (Pseudomonas aeruginosa; [15]) of the same compound?
Answer: +

Question: And the antimicrobial activity (Pseudomonas aeruginosa; [16])?
Answer: +

Question: What about the antimicrobial activity (Candida albicans; [1]) of the same compound?
Answer: −

Question: What about the antimicrobial activity (Candida albicans; [2]) of the same compound?
Answer: −

Question: What about the antimicrobial activity (Candida albicans; [3]) of the same compound?
Answer: +

Question: What about the antimicrobial activity (Candida albicans; [4]) of the same compound?
Answer: +

Question: What about the antimicrobial activity (Candida albicans; [5]) of the same compound?
Answer: +

Question: And the antimicrobial activity (Candida albicans; [6])?
Answer: +

Question: And the antimicrobial activity (Candida albicans; [7])?
Answer: +

Question: What about the antimicrobial activity (Candida albicans; [8]) of the same compound?
Answer: +

Question: And the antimicrobial activity (Candida albicans; [9])?
Answer: +

Question: And the antimicrobial activity (Candida albicans; [10])?
Answer: +

Question: And the antimicrobial activity (Candida albicans; [11])?
Answer: +

Question: What about the antimicrobial activity (Candida albicans; [12]) of the same compound?
Answer: +

Question: And the antimicrobial activity (Candida albicans; [13])?
Answer: +

Question: And the antimicrobial activity (Candida albicans; [14])?
Answer: +

Question: What about the antimicrobial activity (Candida albicans; [15]) of the same compound?
Answer: +

Question: And the antimicrobial activity (Candida albicans; [16])?
Answer: +

Question: What about the antimicrobial activity (Staphylococcus aureus; [1]) of the same compound?
Answer: −

Question: What about the antimicrobial activity (Staphylococcus aureus; [2]) of the same compound?
Answer: −

Question: What about the antimicrobial activity (Staphylococcus aureus; [3]) of the same compound?
Answer: −

Question: What about the antimicrobial activity (Staphylococcus aureus; [4]) of the same compound?
Answer: −

Question: And the antimicrobial activity (Staphylococcus aureus; [5])?
Answer: +

Question: What about the antimicrobial activity (Staphylococcus aureus; [6]) of the same compound?
Answer: +

Question: What about the antimicrobial activity (Staphylococcus aureus; [7]) of the same compound?
Answer: +

Question: What about the antimicrobial activity (Staphylococcus aureus; [8]) of the same compound?
Answer: +

Question: What about the antimicrobial activity (Staphylococcus aureus; [9]) of the same compound?
Answer: +

Question: What about the antimicrobial activity (Staphylococcus aureus; [10]) of the same compound?
Answer: +

Question: And the antimicrobial activity (Staphylococcus aureus; [11])?
Answer: +

Question: What about the antimicrobial activity (Staphylococcus aureus; [12]) of the same compound?
Answer: +

Question: What about the antimicrobial activity (Staphylococcus aureus; [13]) of the same compound?
Answer: +

Question: What about the antimicrobial activity (Staphylococcus aureus; [14]) of the same compound?
Answer: +

Question: What about the antimicrobial activity (Staphylococcus aureus; [15]) of the same compound?
Answer: +

Question: What about the antimicrobial activity (Staphylococcus aureus; [16]) of the same compound?
Answer: +
